Measured values from the supplement of paper PMC12819154, “High-throughput peptide-centric local stability assay extends protein–ligand identification to membrane proteins, tissues and bacteria” (Nature Structural & Molecular Biology, 2025).
The other results are listed elsewhere or left out. Small differences around the control level are noise.

Chains of the proteins cited; added tags and fusions are not shown. Lines headed by an entry give the natural chain unless they say otherwise; changes in a name come on top.
UniProt Q15029: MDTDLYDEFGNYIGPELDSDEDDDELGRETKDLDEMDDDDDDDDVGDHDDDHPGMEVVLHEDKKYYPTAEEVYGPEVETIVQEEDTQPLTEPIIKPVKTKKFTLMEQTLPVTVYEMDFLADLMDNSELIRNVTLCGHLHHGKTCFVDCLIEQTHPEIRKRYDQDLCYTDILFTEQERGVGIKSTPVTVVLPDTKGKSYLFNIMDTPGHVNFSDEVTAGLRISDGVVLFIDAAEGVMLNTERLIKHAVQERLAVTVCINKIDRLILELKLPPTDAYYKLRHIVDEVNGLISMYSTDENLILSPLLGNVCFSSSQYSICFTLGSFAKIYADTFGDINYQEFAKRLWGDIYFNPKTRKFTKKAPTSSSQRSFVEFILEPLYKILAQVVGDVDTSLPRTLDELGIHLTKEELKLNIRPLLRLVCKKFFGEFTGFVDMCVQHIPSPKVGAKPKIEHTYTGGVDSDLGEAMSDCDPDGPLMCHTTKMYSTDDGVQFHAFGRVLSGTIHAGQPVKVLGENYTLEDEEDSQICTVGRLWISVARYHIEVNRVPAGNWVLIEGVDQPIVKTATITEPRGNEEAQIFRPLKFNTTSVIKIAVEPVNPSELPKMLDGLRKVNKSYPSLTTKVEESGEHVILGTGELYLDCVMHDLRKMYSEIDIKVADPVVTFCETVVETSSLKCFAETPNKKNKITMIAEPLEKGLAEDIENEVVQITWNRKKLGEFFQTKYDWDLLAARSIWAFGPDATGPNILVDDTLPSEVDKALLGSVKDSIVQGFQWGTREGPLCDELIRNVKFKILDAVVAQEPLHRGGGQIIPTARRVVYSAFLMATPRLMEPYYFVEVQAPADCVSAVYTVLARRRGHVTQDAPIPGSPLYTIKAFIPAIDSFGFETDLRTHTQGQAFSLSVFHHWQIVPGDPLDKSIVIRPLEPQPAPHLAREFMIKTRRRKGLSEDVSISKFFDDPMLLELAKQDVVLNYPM
UniProt Q2KHR2: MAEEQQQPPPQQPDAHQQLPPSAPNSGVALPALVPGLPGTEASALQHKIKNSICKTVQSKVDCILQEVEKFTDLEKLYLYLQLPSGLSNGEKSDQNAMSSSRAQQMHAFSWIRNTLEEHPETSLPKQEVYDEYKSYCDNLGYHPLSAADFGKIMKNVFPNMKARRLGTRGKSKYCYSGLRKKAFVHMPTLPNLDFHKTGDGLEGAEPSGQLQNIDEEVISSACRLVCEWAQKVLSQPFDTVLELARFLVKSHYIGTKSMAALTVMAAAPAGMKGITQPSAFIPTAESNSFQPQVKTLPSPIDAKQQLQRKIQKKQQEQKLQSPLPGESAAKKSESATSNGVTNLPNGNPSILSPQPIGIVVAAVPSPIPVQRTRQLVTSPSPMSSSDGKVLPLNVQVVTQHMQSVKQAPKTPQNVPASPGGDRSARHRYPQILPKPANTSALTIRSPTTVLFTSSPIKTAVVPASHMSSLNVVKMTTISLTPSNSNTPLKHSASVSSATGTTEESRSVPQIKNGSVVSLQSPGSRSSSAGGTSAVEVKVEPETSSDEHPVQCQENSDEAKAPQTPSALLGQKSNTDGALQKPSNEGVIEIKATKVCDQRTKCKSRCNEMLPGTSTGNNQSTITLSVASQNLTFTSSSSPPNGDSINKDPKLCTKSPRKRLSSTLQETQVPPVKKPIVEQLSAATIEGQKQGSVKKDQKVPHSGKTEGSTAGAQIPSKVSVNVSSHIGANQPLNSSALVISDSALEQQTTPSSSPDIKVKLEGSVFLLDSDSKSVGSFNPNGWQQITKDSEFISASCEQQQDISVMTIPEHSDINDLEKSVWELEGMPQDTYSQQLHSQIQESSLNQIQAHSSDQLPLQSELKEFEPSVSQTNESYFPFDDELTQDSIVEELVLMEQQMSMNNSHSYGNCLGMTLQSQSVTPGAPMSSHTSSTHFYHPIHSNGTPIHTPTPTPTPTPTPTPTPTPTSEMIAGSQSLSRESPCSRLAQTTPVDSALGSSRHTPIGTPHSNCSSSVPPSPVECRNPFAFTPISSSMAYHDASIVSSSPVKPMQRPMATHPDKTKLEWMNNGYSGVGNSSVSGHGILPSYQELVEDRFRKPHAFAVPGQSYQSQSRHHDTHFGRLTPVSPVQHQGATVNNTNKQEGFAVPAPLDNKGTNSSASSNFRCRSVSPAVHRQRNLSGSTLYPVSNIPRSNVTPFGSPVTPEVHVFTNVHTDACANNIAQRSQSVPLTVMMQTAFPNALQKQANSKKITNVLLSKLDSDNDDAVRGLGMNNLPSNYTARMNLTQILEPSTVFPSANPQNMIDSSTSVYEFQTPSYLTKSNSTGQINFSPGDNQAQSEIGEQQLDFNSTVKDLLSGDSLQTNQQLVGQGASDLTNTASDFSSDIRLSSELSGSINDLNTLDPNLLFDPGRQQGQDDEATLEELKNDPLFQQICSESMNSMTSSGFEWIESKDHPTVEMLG
UniProt Q32P51: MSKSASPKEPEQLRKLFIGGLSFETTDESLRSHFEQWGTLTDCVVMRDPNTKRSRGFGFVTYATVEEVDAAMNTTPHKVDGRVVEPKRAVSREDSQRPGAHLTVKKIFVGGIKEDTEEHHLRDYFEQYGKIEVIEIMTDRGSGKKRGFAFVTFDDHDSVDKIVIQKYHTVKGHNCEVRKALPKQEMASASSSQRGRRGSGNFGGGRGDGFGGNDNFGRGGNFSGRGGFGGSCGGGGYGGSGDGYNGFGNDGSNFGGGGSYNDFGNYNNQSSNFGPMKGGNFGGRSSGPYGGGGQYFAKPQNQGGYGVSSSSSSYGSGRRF
UniProt Q15477, whole entry: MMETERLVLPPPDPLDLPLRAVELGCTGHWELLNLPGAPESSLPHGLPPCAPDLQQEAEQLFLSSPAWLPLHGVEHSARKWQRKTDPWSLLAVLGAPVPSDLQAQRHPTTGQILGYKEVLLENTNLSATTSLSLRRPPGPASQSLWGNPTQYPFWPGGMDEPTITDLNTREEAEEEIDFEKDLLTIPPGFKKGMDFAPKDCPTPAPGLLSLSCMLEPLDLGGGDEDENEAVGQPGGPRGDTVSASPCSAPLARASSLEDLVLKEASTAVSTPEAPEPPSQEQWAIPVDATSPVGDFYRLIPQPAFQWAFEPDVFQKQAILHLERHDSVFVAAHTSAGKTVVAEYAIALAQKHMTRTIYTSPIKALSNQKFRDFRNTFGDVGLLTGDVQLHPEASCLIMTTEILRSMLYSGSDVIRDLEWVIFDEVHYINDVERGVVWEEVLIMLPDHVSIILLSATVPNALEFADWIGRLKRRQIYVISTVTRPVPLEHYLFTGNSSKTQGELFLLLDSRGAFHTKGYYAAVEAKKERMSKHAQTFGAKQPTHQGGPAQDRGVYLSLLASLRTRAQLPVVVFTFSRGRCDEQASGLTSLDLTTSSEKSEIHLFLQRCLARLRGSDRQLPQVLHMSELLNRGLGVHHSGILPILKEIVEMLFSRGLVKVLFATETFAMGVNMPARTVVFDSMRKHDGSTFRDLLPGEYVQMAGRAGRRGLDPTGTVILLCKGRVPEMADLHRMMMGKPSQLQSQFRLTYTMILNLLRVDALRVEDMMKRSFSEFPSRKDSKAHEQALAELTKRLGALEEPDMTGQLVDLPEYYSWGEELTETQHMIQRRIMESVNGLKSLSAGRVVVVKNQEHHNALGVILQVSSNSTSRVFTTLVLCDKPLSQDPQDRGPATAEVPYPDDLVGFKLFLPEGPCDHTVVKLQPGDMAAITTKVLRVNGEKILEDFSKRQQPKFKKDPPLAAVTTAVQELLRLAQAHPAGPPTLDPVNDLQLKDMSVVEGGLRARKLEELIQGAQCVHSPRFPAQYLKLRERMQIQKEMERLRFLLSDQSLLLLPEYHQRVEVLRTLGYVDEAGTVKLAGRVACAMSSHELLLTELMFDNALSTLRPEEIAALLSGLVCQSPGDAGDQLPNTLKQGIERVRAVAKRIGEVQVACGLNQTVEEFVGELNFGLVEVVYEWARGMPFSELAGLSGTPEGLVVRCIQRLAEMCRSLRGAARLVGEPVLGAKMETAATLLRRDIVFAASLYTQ
UniProt Q17R31: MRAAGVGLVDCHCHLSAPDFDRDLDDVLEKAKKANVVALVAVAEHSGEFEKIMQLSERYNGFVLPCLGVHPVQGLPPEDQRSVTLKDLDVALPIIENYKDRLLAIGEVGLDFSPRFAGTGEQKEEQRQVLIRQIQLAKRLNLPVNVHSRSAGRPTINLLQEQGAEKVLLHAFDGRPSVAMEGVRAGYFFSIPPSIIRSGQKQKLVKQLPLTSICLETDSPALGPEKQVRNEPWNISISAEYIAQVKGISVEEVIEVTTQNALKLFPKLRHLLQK
UniProt Q15543, whole entry: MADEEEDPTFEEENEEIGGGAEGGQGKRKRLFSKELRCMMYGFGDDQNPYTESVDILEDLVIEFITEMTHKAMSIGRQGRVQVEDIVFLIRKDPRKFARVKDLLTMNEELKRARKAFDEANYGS
UniProt Q3KRA9: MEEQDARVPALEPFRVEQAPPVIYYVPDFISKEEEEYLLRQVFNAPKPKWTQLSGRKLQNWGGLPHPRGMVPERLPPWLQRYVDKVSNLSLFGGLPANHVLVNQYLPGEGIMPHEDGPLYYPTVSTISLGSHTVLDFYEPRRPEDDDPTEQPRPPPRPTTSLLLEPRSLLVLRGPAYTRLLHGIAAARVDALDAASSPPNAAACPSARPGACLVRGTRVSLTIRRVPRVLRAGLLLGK
UniProt Q15435: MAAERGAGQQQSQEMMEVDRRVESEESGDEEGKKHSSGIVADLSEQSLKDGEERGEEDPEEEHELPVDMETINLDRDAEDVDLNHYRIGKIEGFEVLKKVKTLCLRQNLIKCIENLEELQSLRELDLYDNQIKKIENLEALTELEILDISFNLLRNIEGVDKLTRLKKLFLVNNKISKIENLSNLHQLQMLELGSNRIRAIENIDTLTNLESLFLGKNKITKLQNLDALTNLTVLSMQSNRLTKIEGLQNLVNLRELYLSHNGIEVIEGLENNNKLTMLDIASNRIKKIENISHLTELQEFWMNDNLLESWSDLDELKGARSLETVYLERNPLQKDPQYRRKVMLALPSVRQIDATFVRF
UniProt Q3KQU3: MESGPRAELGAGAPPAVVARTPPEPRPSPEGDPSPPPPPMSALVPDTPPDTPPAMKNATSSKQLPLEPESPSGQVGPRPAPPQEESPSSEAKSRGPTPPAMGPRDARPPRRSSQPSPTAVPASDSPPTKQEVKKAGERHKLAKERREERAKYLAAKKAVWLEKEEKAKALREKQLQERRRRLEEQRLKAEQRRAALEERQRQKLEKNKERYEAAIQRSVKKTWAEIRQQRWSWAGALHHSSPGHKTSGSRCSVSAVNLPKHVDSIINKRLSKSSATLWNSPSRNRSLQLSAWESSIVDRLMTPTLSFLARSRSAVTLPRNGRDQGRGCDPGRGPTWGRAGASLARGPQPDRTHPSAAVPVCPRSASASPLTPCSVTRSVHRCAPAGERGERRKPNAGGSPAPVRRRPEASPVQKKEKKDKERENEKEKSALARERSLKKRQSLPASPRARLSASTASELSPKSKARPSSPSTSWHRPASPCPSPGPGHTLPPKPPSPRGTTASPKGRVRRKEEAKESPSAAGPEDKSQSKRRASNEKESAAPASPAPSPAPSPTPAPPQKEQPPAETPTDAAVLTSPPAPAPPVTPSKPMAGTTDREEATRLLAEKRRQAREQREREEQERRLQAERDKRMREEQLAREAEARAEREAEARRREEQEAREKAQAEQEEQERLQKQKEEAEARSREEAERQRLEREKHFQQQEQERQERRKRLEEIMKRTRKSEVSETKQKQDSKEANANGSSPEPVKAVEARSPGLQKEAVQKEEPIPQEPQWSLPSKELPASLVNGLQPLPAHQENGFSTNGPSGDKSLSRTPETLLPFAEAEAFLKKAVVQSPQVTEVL
UniProt Q16891: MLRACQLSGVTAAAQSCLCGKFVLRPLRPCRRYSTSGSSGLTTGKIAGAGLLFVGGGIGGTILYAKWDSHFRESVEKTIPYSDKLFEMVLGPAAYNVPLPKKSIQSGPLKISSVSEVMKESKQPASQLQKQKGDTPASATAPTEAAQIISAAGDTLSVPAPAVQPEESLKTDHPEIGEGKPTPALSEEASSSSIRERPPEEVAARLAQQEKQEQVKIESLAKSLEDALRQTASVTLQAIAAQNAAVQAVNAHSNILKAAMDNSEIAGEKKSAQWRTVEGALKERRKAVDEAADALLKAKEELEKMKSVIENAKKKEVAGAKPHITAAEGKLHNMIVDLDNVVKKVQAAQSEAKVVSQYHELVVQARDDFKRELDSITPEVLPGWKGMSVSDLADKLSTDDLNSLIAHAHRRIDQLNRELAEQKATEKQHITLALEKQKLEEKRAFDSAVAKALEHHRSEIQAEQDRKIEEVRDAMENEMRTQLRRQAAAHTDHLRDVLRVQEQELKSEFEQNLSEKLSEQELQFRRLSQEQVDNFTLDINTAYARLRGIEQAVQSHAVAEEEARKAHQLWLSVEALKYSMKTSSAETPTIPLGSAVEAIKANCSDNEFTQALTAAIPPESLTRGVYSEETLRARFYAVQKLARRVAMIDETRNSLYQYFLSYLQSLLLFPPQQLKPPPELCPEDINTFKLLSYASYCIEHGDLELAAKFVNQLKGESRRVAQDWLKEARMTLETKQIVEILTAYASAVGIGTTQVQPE

Compound: Cc1nc(Nc2ncc(C(=O)Nc3c(C)cccc3Cl)s2)cc(N2CCN(CCO)CC2)n1 [dasatinib]
Assay: log2 fold change of tryptic peptide abundance, ligand vs vehicle (limited proteolysis) (log2 ratio); higher = more trypsin-susceptible (destabilized)
Conditions: ligand concentration: 5 uM; sample: K562 cleared lysate

Which log2 fold change does the source give for “CCDC57 (peptide sequence: AGELQDLEAMSR, peptide start residue: 246) (UniProt Q2TAC2)” here?
The log2 fold change was 0.591.

“HERC3 (peptide sequence: GYWAAHSGQLSAR, peptide start residue: 343) (UniProt Q15034)” was tested. Which log2 fold change did it give?
Its log2 fold change is 0.0823.

“EFTUD2 (peptide sequence: NVTLCGHLHHGK, peptide start residue: 131) (UniProt Q15029)” was tested. Which log2 fold change did it give?
Its log2 fold change is -0.391.

How did the log2 fold change turn out when “RFX7 (peptide sequence: TPQNVPASPGGDR, peptide start residue: 314) (UniProt Q2KHR2)” was run?
Its log2 fold change is 0.467.

“HNRNPA1L2 (peptide sequence: EDSQRPGAHLTVKK, peptide start residue: 93) (UniProt Q32P51)” was tested. Which log2 fold change did it give?
The log2 fold change was 0.132.

Which log2 fold change does the source give for “SKIV2L (peptide sequence: GYYAAVEAK, peptide start residue: 517) (UniProt Q15477)” here?
Its log2 fold change is -0.498.

Which log2 fold change does the source give for “RPS6KA2 (peptide sequence: SKRDPSEEIEILLR, peptide start residue: 452) (UniProt Q15349)” here?
Its log2 fold change is -0.125.

For “UniProt Q1ED39 (peptide sequence: THKVDLGLPEKK, peptide start residue: 5)”, which log2 fold change is on record?
The log2 fold change was 0.239.

“MED22 (peptide sequence: ETLLQSYNKR, peptide start residue: 12) (UniProt Q15528)” was tested. Which log2 fold change did it give?
The log2 fold change was 0.259.

How did the log2 fold change turn out when “KIF14 (peptide sequence: NKESSLLVSELEDTTEKTAETR, peptide start residue: 97) (UniProt Q15058)” was run?
Its log2 fold change is 0.496.

With “UniProt Q15669 (peptide sequence: GVQQVFECAVR, peptide start residue: 158)” as the target, how does the log2 fold change read?
The log2 fold change was -0.0717.

For “TATDN3 (peptide sequence: SAGRPTINLLQEQGAEK, peptide start residue: 150) (UniProt Q17R31)”, which log2 fold change is on record?
Its log2 fold change is -0.0126.

How did the log2 fold change turn out when “SMAD1 (peptide sequence: RVESPVLPPVLVPR, peptide start residue: 130) (UniProt Q15797)” was run?
The log2 fold change was -0.163.

For “PTGES3 (peptide sequence: HLNEIDLFHCIDPNDSK, peptide start residue: 49) (UniProt Q15185)”, which log2 fold change is on record?
Its log2 fold change is 0.0971.

Which log2 fold change does the source give for “DBN1 (peptide sequence: EQSIFGDHRDEEEETHMK, peptide start residue: 253) (UniProt Q16643)” here?
Its log2 fold change is 0.0877.

Which log2 fold change does the source give for “UniProt Q15776 (peptide sequence: AFSQSAGLILHQR, peptide start residue: 414)” here?
The log2 fold change was 0.736.

Which log2 fold change does the source give for “NFIL3 (peptide sequence: SEHWHQK, peptide start residue: 395) (UniProt Q16649)” here?
Its log2 fold change is 0.19.

With “MAPRE1 (peptide sequence: IIPVDKLVK, peptide start residue: 90) (UniProt Q15691)” as the target, how does the log2 fold change read?
Its log2 fold change is -0.168.

For “DECR1 (peptide sequence: LDPTGTFEK, peptide start residue: 252) (UniProt Q16698)”, which log2 fold change is on record?
Its log2 fold change is 0.105.

For “CLEC16A (peptide sequence: IMNNAAQPDGK, peptide start residue: 546) (UniProt Q2KHT3)”, which log2 fold change is on record?
The log2 fold change was -0.298.

“UniProt Q15543 (peptide sequence: KAFDEANYGS, peptide start residue: 115)” was tested. Which log2 fold change did it give?
The log2 fold change was 0.311.

Which log2 fold change does the source give for “SF3A2 (peptide sequence: QFFLQFHFK, peptide start residue: 205) (UniProt Q15428)” here?
The log2 fold change was 0.282.

How did the log2 fold change turn out when “ECM1 (peptide sequence: QLRPEHFQEVGYAAPPSPPLSR, peptide start residue: 32) (UniProt Q16610)” was run?
Its log2 fold change is 0.223.

“ALKBH6 (peptide sequence: LLHGIAAAR, peptide start residue: 180) (UniProt Q3KRA9)” was tested. Which log2 fold change did it give?
The log2 fold change was -0.778.

How did the log2 fold change turn out when “AP5B1 (peptide sequence: VGAGLGGLLTDK, peptide start residue: 203) (UniProt Q2VPB7)” was run?
Its log2 fold change is -0.299.

How did the log2 fold change turn out when “UniProt Q3KQV3 (peptide sequence: SAHECSECGKSFNCNSSLIK, peptide start residue: 392)” was run?
The log2 fold change was -0.614.

How did the log2 fold change turn out when “ZNF239 (peptide sequence: VHTGEKPYECEECGMSFSQR, peptide start residue: 312) (UniProt Q16600)” was run?
The log2 fold change was -0.526.

How did the log2 fold change turn out when “PPP1R7 (peptide sequence: ELDLYDNQIK, peptide start residue: 124) (UniProt Q15435)” was run?
Its log2 fold change is -0.14.

“UniProt Q15257 (peptide sequence: LVALLNTLDR, peptide start residue: 112)” was tested. Which log2 fold change did it give?
Its log2 fold change is 0.416.

“MYLK3 (peptide sequence: SDDNDHEVGALGLQQGK, peptide start residue: 433) (UniProt Q32MK0)” was tested. Which log2 fold change did it give?
Its log2 fold change is -0.061.

“UniProt Q2VY69 (peptide sequence: CQKCGKGYISK, peptide start residue: 429)” was tested. Which log2 fold change did it give?
Its log2 fold change is 0.163.

How did the log2 fold change turn out when “MAP7D1 (peptide sequence: RKPNAGGSPAPVR, peptide start residue: 392) (UniProt Q3KQU3)” was run?
The log2 fold change was -0.363.

Which log2 fold change does the source give for “VMAC (peptide sequence: LALHDQQLR, peptide start residue: 44) (UniProt Q2NL98)” here?
Its log2 fold change is 0.228.

For “EZH2 (peptide sequence: KSEKGPVCWR, peptide start residue: 7) (UniProt Q15910)”, which log2 fold change is on record?
The log2 fold change was -0.766.

“UniProt Q2TAY7 (peptide sequence: GVTCLSFSK, peptide start residue: 309)” was tested. Which log2 fold change did it give?
The log2 fold change was 0.563.

How did the log2 fold change turn out when “PAFAH1B3 (peptide sequence: IVVVWVGTNNHGHTAEQVTGGIK, peptide start residue: 96) (UniProt Q15102)” was run?
Its log2 fold change is 0.124.

How did the log2 fold change turn out when “IMMT (peptide sequence: EVAGAKPHITAAEGK, peptide start residue: 316) (UniProt Q16891)” was run?
Its log2 fold change is 0.339.
